Measurements from “University of Dundee, Small-Polar-MMV Screening Library” (2021), ChEMBL document CHEMBL3988442.

Results are given as percent effect.
The controls that fix the scale are not given in the record; negative values are as filed.
The compounds are a random part of those screened.
A dash means the value is not listed here; it may have been measured.

Mtb growth Cornell: 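Whole-cell assay for inhibitors of Mycobacterium tuberculosis growth, labelled Cornell in the record; the read-out is not stated. The concentration is filed as 10 mM, unlikely as a test dose, so the dose is not known. The record gives no direction; compounds strong in two other growth screens of this library score well above the rest, so higher reads as stronger inhibition. About 53,000 compounds were tested under these conditions; 1.7% (about 900) showed 50% or more at least once.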
Mtb heat-shock: 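Assay on Mycobacterium tuberculosis, filed only as a heat shock assay from Cornell; the read-out is not stated. The concentration is filed as 10 mM, unlikely as a test dose, so the dose is not known. Direction is inferred from retests: higher values go with stronger inhibition. About 69,000 compounds were tested under these conditions; 1.4% (about 930) showed 50% or more at least once.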

- CCn1c(C2CCNCC2)nn(Cc2ccc(C(=O)NC)o2)c1=O : Mtb heat-shock: 6.665%
- Cn1cc(CN2CCC(F)(F)C3(CCN(c4ccccn4)C3)C2)cn1.O=C(O)C(F)(F)F.O=C(O)C(F)(F)F (stereo not given) : Mtb heat-shock: -18.19%
- CC(C)(C)NC(=O)N1CCC(Oc2ccc(C(F)(F)F)cn2)CC1 : Mtb heat-shock: -15.56%
- CCN1CCN(C)C(=O)C12CCN(Cc1cccc(C)c1)CC2.O=C(O)C(F)(F)F : Mtb heat-shock: -24.48%
- O=C(c1cccn1Cc1cccs1)N1CCCC1Cn1cccn1 (stereo not given) : Mtb growth Cornell: 18.55%; Mtb heat-shock: 7.061%
- CC(=O)N1CCC(CCNC(C)c2cc(C)cc(C)c2)CC1 (stereo not given) : Mtb growth Cornell: -3.655%; Mtb heat-shock: -14.05%
- CN(C)c1cccc(C(=O)N2CCCSCC2CN2CCCC2)c1 (stereo not given) : Mtb heat-shock: -28.94%
- CCN1CCN(C(=O)CCC2CCN(C(C)CCC(=O)OC)CC2)CC1 (stereo not given) : Mtb growth Cornell: -16.47%; Mtb heat-shock: -9.047%
- CC(C)CN1CC2(CCN(C(=O)c3cnccn3)CC2)CC1=O : Mtb growth Cornell: 8.787%; Mtb heat-shock: 12.03%
- N#CCC1CC(c2ccc(F)cc2)=NO1 (stereo not given) : Mtb growth Cornell: 21.18%; Mtb heat-shock: 3.557%
- CCCn1cc(-c2cc(-c3ccoc3)c(C#N)c(N)n2)c(C)n1 : Mtb growth Cornell: 46%; Mtb heat-shock: 75.39%
- O=C(Nc1nnc(C2CC2)s1)NC1CCN(Cc2ccccc2)C1 (stereo not given) : Mtb growth Cornell: 4.803%; Mtb heat-shock: 27.41%
- CCN(CCO)C[C@@H]1CN(c2cccc(C(F)(F)F)n2)C[C@@H]1CO : Mtb growth Cornell: -13.68%; Mtb heat-shock: 10.23%
- COCC(c1cccc(C(F)(F)F)c1)N(C)C(=O)c1cccnc1 (stereo not given) : Mtb heat-shock: 0.9699%
- O=C(CCCSc1ccc(NC(=O)C2CC2)nn1)NCC1CCCO1 (stereo not given) : Mtb growth Cornell: -20.55%; Mtb heat-shock: -11.74%
- O=C(O)C(F)(F)F.O=C(O)C(F)(F)F.[H][C@@]12CN(Cc3scnc3C)C[C@H](C(=O)NCCOC)[C@]1([H])CCO2 : Mtb growth Cornell: 37.23%; Mtb heat-shock: 13.37%
- Cc1noc(CCCNC(=O)CNC(=O)c2cc3ccccc3[nH]2)n1 : Mtb growth Cornell: 17.25%; Mtb heat-shock: 10.42%
- CC1CCN(S(=O)(=O)NCc2ccccc2Cn2cccn2)CC1 : Mtb growth Cornell: -23.1%; Mtb heat-shock: -20.07%
- Cc1cc(C)n(CC2CCCN2CC(=O)Nc2nncs2)n1 (stereo not given) : Mtb growth Cornell: -24.33%; Mtb heat-shock: -43.1%
- O=C1NCCN1C1CCN(Cc2coc(-c3ccc(F)cc3)n2)CC1 : Mtb growth Cornell: -4.629%; Mtb heat-shock: -3.706%
- COCCN1CCN(Cc2cnc(C(C)C)nc2)CC1 : Mtb growth Cornell: -70.32%; Mtb heat-shock: -25.22%
- Cc1[nH]ccc1C(=O)N1CCCC(c2nccn2Cc2cscn2)C1 (stereo not given) : Mtb growth Cornell: -1.752%; Mtb heat-shock: -1.058%
- O=C(O)C(F)(F)F.O=C(O)C(F)(F)F.O=C(O)C(F)(F)F.[H][C@]12C[C@@H](CN3CCCC3)N(C)[C@@]1([H])CCN(Cc1ccoc1)C2 : Mtb growth Cornell: -6.456%; Mtb heat-shock: -0.1775%
- COCC(=O)N1CCCC1c1cccc(C)c1C (stereo not given) : Mtb growth Cornell: -3.62%; Mtb heat-shock: -4.672%
- CC(C)CCN1C(=O)CC(N(C)Cc2nc3ccccc3c(=O)[nH]2)C1=O (stereo not given) : Mtb heat-shock: -3.54%
- CN1CC2(CCN(c3ncnc4c3CCNC4)CC2)OC1=O : Mtb growth Cornell: 9.539%; Mtb heat-shock: -3.907%
- COC(=O)c1cc(C)nc(N2CCN(Cc3ccn(C(C)C)c3)CC2)n1 : Mtb growth Cornell: 27.41%; Mtb heat-shock: -7.382%
- Cc1cc(C)n(C2CN(CCC(N)=O)C2)n1 : Mtb growth Cornell: 3.316%; Mtb heat-shock: 5.404%
- CC(C)C(C)(C#N)NC(=O)CN1CCCN(Cc2ccccc2F)CC1 (stereo not given) : Mtb growth Cornell: 23.17%; Mtb heat-shock: 8.005%
- CS(=O)(=O)N1CCOCC12CCN(Cc1ccoc1)CC2 : Mtb growth Cornell: 12.64%; Mtb heat-shock: 8.832%

Repeated from the top, 3 entries:

Compound	Mtb growth Cornell	Mtb heat-shock
CCn1c(C2CCNCC2)nn(Cc2ccc(C(=O)NC)o2)c1=O	-	6.665
Cn1cc(CN2CCC(F)(F)C3(CCN(c4ccccn4)C3)C2)cn1.O=C(O)C(F)(F)F.O=C(O)C(F)(F)F (stereo not given)	-	-18.19
CC(C)(C)NC(=O)N1CCC(Oc2ccc(C(F)(F)F)cn2)CC1	-	-15.56